The text below walks through data of PMC4309906.

These are yes or no findings as the source states them, for the method shown. Binding seen in cells or lysates may run through a third protein. Some entries that bind do so weakly or less than the wild type. Sequences can lack the tags named with a protein.

In the experiment the target is T1, promyelocytic leukemia zinc finger protein (EGFP-PLZF) (UniProt Q05516).
T1 sequence: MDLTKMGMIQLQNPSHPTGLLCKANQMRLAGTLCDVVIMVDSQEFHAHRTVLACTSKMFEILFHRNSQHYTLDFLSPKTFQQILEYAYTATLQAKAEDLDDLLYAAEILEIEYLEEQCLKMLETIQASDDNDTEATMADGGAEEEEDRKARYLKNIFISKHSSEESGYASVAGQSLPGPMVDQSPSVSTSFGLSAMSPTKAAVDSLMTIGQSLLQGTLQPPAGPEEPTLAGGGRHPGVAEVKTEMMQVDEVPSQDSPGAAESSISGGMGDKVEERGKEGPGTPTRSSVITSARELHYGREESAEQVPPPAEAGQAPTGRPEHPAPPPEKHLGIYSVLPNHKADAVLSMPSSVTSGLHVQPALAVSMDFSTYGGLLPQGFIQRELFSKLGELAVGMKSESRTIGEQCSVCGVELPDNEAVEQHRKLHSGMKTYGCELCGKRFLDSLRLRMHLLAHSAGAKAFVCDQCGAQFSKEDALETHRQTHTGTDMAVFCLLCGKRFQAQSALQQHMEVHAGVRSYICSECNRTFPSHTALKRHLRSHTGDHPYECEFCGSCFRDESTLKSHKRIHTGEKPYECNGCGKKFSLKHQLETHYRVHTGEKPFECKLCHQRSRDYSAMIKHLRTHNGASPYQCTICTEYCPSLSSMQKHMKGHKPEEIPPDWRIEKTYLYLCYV
Description: co-IP; U373MG cells transiently co-transfected with EGFP-PLZF and HA or HA-ZNF179 plasmids; lysis buffer 50 mM NaCl, 0.5 % NP-40, 10 mM Tris-HCl pH 8.0; anti-GFP antibody at 4 °C, protein-A/G agarose; washed three times with modified RIPA buffer; Western blot.

B1: Zinc Finger Protein 179 (HA-ZNF179) (protein, UniProt Q9ULX5 1-631)
chain: MPRPALSVTSFCHRLGKRERKQSFMGNSGNSWSHTPFPKLELGLGPQPMAPRELPTCSICLERLRDPISLDCGHDFCIRCFSTHRLPGCEPPCCPECRKICKQKRGLRSLGEKMKLLPQRPLPPALQETCPVRAEPLLLVRINASGGLILRMGAINRCLKHPLARDTPVCLLAVLGEQHSGKSFLLNHLLQGLPGLESGEGGRPRGGEASLQGCRWGANGLARGIWMWSHPFLLGKEGKKVAVFLVDTGDAMSPELSRETRIKLCALTTMLSSYQILSTSQELKDTDLDYLEMFVHVAEVMGKHYGMVPIQHLDLLVRDSSHPNKAGQGHVGNIFQRLSGRYPKVQELLQGKRARCCLLPAPGRRRMNQGHASPGDTDDDFRHLLGAYVSDVLSAAPQHAKSRCQGYWNEGRAVARGDRRLLTGQQLAQEIKNLSGWMGRTGPGFTSPDEMAAQLHDLRKVEAAKREFEEYVRQQDVATKRIFSALRVLPDTMRNLLSTQKDAILARHGVALLCKGRDQTLEALEAELQATAKAFMDSYTMRFCGHLAAVGGAVGAGLMGLAGGVVGAGMAAAALAAEAGMVAAGAAVGATGAAVVGGGVGAGLAATVGCMEKEEDERLLEGDREPLLQEE
Turning to B1, the binding result is “binds”.
